Drawing on PubChem BioAssay AID248 (DTP/NCI, 2004), this text covers survivor count and T/C for 21 compounds.

The experiment concerns L1210 leukemia ip in BDF1 mice, survival T/C. Nature of the experiment: NCI In Vivo Anticancer Drug Screen. Data for tumor model L1210 Leukemia (intraperitoneal) in B6D2F1 (BDF1) mice. Particulars: T/C endpoint: mean survival time, higher T/C = longer survival.
[1] abbreviates: dose: 25.0 mg/kg/injection, schedule: Q01DX009 (ip), vehicle: saline.
Where [2] appears, read: dose: 50.0 mg/kg/injection, schedule: Q01DX009 (ip), vehicle: saline.
[3] abbreviates: dose: 100.0 mg/kg/injection, schedule: Q01DX009 (ip), vehicle: saline.
[4] abbreviates: dose: 400.0 mg/kg/injection, schedule: Q01DX009 (ip), vehicle: Klucel (hydroxypropylcellulose) (HPC).
Setting [5] is: dose: 400.0 mg/kg/injection, schedule: Q01DX001 (ip), vehicle: saline.
Where [6] appears, read: dose: 200.0 mg/kg/injection, schedule: Q01DX009 (ip), vehicle: Klucel (hydroxypropylcellulose) (HPC).

The list shows only some results of the screen, not a fair sample: it gathers tests that were run many times, whatever their T/C, doses with no T/C, and many T/C values between a quarter and a half above the control. Further doses and runs are listed elsewhere. T/C is the treated group as % of the vehicle group. Some entries give survivors of the animals treated and no T/C: the source files T/C as zero there, which appears to mark a toxic dose or a test without result, not a measured value. Some survivor counts are full or nearly so, which does not show that the dose was tolerated: the source hardly ever lists a survival T/C far under the control, and the zero likely stands for such cases as well. Survivors were counted at the toxicity check, usually on the fifth day, unless a day is given; later deaths do not show. Schedules are NCI's codes, read here as Q, the interval in days (D) or hours (H), X, the number of doses. Some doses were run more than once; their values stand side by side, smallest first. Some schedules carry Z or #; the key to these is not given. For survival time, this PubChem deposit counts one and a half times the control or more as active, and values a quarter to a half above the control carry no call in these data; other NCI protocols may use other cut-offs. Some T/C values are followed by the survivors on the day toxicity was checked, most often the fifth; without a count, all were alive then.

Consider `O=C(C#Cc1ccccc1)[O][Sn]([c]1ccccc1)([c]1ccccc1)[c]1ccccc1`, for which the survivor count is recorded as 1 of 6 (dose: 12.5 mg/kg/injection, schedule: Q01DX009 (ip), vehicle: saline); 0 of 6 under setting [1]; 0 of 6 under setting [2]; 0 of 6 under setting [3]; 2 of 3 (dose: 100.0 mg/kg/injection, schedule: Q04DX002 (ip), vehicle: saline); 0 of 3 (dose: 200.0 mg/kg/injection, schedule: Q04DX002 (ip), vehicle: saline). Besides, under “dose: 400.0 mg/kg/injection, schedule: Q04DX002 (ip), vehicle: saline”, the survivor count is reported as 0 of 3.

As to `CC(C)(/C=N/N=C(N)N)CCC#N`, under “dose: 960.0 mg/kg/injection, schedule: Q01DX Z (oral), vehicle: saline”, the survivor count is 1 of 6.

Regarding `Cc1ccc(/C=N/N=C(N)N)cc1`, for the setting “dose: 120.0 mg/kg/injection, schedule: Q01DX Z (ip), vehicle: saline”, the survivor count is 0 of 6.

For the compound `O=C(Cl)OCC(Cl)(Cl)Cl`, under setting [4], the survivor count is listed as 0 of 6.

Consider `CC(C)(C)NCC1CCCC1=O` (centres undefined), for which the survivor count (dose: 400.0 mg/kg/injection, schedule: Q04DX002 (ip), vehicle: gum acacia) is 0 of 3.

For `Cc1ccc(Cl)nn1`, under setting [5], the survivor count was 0 of 6.

Consider `O=[N+]([O-])C=C([SH2+])[SH2+].O=[N+]([O-])C=C([SH2+])[SH2+].[Ni+2].c1ccc(C[P+](c2ccccc2)(c2ccccc2)c2ccccc2)cc1`, for which, for the setting “dose: 300.0 mg/kg/injection, schedule: Q04DX003 (ip), vehicle: saline”, the survivor count is on record as 6 of 6.

In the case of `N#CC(C#N)C1c2ccccc2Nc2ccccc21`, the survivor count is, setting by setting: (dose: 100.0 mg/kg/injection, schedule: Q01DX009 (ip), vehicle: saline with Tween-80) 0 of 3; (dose: 200.0 mg/kg/injection, schedule: Q01DX009 (ip), vehicle: saline with Tween-80) 0 of 3.

Turning to `CCCCCCOC(=O)/C=C(/C)OCCCCCC`, the survivor count (dose: 400.0 mg/kg/injection, schedule: Q04DX003 (ip), vehicle: saline) is 5 of 6.

Consider `N#CC[CH2][Sn]([Br])([Br])[CH2]CC#N`, for which the survivor count was 3 of 3 under setting [1]; 3 of 3 under setting [2]; 1 of 3 under setting [3]; 0 of 3 (dose: 200.0 mg/kg/injection, schedule: Q01DX009 (ip), vehicle: saline).

As for `C=CCN(CC=C)C(=S)[S-].C=CCN(CC=C)C(=S)[S-].[Zn]`, the survivor count runs as follows: (dose: 20.0 mg/kg/injection, schedule: Q04DX003 (ip), vehicle: saline) 5 of 6; (dose: 40.0 mg/kg/injection, schedule: Q01DX001 (ip), vehicle: saline) 0 of 6; (dose: 75.0 mg/kg/injection, schedule: Q01DX001 (ip), vehicle: acetone) 0 of 6; (dose: 150.0 mg/kg/injection, schedule: Q01DX001 (ip), vehicle: acetone) 0 of 6; (dose: 300.0 mg/kg/injection, schedule: Q01DX001 (ip), vehicle: acetone) 0 of 6.

`O=C(NCc1ccco1)c1cccc(F)c1`: the survivor count reads like this: under setting [6], 4 of 6; under setting [4], 0 of 6.

For the compound `O=C(Nc1ccccc1F)Oc1ccc([N+](=O)[O-])cc1`, the survivor count under setting [6] is listed as 3 of 6 and the survivor count under setting [4] was 0 of 6.

With `O=C(Nc1ccc(C2=NCCN2)cc1)c1cccc(C(=O)Nc2ccc(C3=NCCN3)cc2)c1O`, the survivor count (dose: 60.0 mg/kg/injection, schedule: Q01DX Z (ip), vehicle: carboxymethylcellulose (CMC)) is recorded as 3 of 6.

Take `C[n+]1cccc2c(C(=O)O)cccc21`: the survivor count under setting [5] is listed as 3 of 6.

On to `CC(=O)OC1CCC(OC(C)=O)C(C#N)(C#N)C1(C#N)C#N` (centres undefined), for which, where the note is “dose: 400.0 mg/kg/injection, schedule: Q04DX003 (ip), vehicle: saline with Tween-80”, the survivor count was 2 of 6.

In the case of `CN(C)/C=C(\C#N)C=O`, the survivor count (dose: 300.0 mg/kg/injection, schedule: Q01DX001 (ip), vehicle: saline) was 1 of 6.

As to `CC1(C)N=C(N)N=C(N)N1c1cccc(CC(C(=O)Nc2ccc(S(=O)(=O)F)cc2)c2ccccc2)c1` (centres undefined), the survivor count (dose: 50.0 mg/kg/injection, schedule: Q01DX001 (ip), vehicle: Klucel (hydroxypropylcellulose) (HPC)) is given as 6 of 6.

As for `CCc1cccc(CC)c1N1C(=O)C2C(C1=O)C1(Cl)C(Cl)=C(Cl)C2(Cl)C1(Cl)Cl` (centres undefined), the survivor count (dose: 100.0 mg/kg/injection, schedule: Q01DX009 (ip), vehicle: Klucel (hydroxypropylcellulose) (HPC)) is recorded as 3 of 6; the survivor count (dose: 150.0 mg/kg/injection, schedule: Q01DX009 (ip), vehicle: Klucel (hydroxypropylcellulose) (HPC)) is 0 of 6; the survivor count (dose: 200.0 mg/kg/injection, schedule: Q04DX003 (ip), vehicle: Klucel (hydroxypropylcellulose) (HPC)) is 0 of 6; the survivor count (dose: 225.0 mg/kg/injection, schedule: Q01DX009 (ip), vehicle: Klucel (hydroxypropylcellulose) (HPC)) is on record as 0 of 6; the survivor count (dose: 335.0 mg/kg/injection, schedule: Q01DX009 (ip), vehicle: Klucel (hydroxypropylcellulose) (HPC)) is given as 0 of 6; the survivor count (dose: 400.0 mg/kg/injection, schedule: Q04DX003 (ip), vehicle: Klucel (hydroxypropylcellulose) (HPC)) is 0 of 6.

Turning to `O=C(NCCCC(NC(=O)OCc1ccccc1)C(=O)NCCCNCCCCNCCCNC(=O)C(CCCNC(=O)OCc1ccccc1)NC(=O)OCc1ccccc1)OCc1ccccc1` (centres undefined), the survivor count by setting is: (dose: 30.0 mg/kg/injection, schedule: Q01DX Z (ip), vehicle: saline) 0 of 6; (dose: 100.0 mg/kg/injection, schedule: Q01DX Z (ip), vehicle: saline) 0 of 6; (dose: 300.0 mg/kg/injection, schedule: Q01DX Z (ip), vehicle: saline) 0 of 6.

As to `COc1cc2c(c(OC)c1OC)-c1ccc(OC)c(=O)cc1[C@@H](NC(=O)c1ccccc1)CC2`, the T/C was 135 % of control [5 of 6 alive] (dose: 1.1 mg/kg/injection, schedule: Q01DX Z (ip), vehicle: methylcellulose (MC)); 129 % of control [5 of 6 alive] (dose: 1.7 mg/kg/injection, schedule: Q01DX Z (ip), vehicle: methylcellulose (MC)); 131 % of control (dose: 3.7 mg/kg/injection, schedule: Q01DX015 (ip), vehicle: carboxymethylcellulose (CMC)); 129 % of control (dose: 5.6 mg/kg/injection, schedule: Q01DX015 (ip), vehicle: carboxymethylcellulose (CMC)); 143 % of control (dose: 8.4 mg/kg/injection, schedule: Q01DX015 (ip), vehicle: carboxymethylcellulose (CMC)); 127 % of control (dose: 18.0 mg/kg/injection, schedule: Q01DX001 (ip), vehicle: carboxymethylcellulose (CMC)). Also, the T/C (dose: 40.0 mg/kg/injection, schedule: Q01DX001 (ip), vehicle: carboxymethylcellulose (CMC)) is 127 and 135 % of control [3 of 4 alive]. Further, the survivor count (dose: 14.4 mg/kg/injection, schedule: Q01DX015 (ip), vehicle: carboxymethylcellulose (CMC)) is 0 of 6 and 1 of 6; the survivor count (dose: 24.0 mg/kg/injection, schedule: Q01DX015 (ip), vehicle: carboxymethylcellulose (CMC)) is on record as 0 of 6; the survivor count (dose: 40.0 mg/kg/injection, schedule: Q01DX015 (ip), vehicle: carboxymethylcellulose (CMC)) is given as 0 of 6; the survivor count (dose: 50.0 mg/kg/injection, schedule: Q01DX001 (ip), vehicle: carboxymethylcellulose (CMC)) is reported as 2 of 4; the survivor count (dose: 60.0 mg/kg/injection, schedule: Q01DX001 (ip), vehicle: carboxymethylcellulose (CMC)) is listed as 0 of 4; the survivor count (dose: 80.0 mg/kg/injection, schedule: Q01DX001 (ip), vehicle: carboxymethylcellulose (CMC)) was 1 of 4. Moreover, the survivor count is recorded as 1 of 4 (dose: 100.0 mg/kg/injection, schedule: Q01DX001 (ip), vehicle: carboxymethylcellulose (CMC)); 0 of 4 (dose: 200.0 mg/kg/injection, schedule: Q01DX001 (ip), vehicle: carboxymethylcellulose (CMC)); 0 of 4 (dose: 400.0 mg/kg/injection, schedule: Q01DX001 (ip), vehicle: carboxymethylcellulose (CMC)).
